Assay results from patent US20250295701A1, “Kit for Induction of Continuous Expansion of Hepatoblast Organoids and/or Hepatocyte Organoids Under 3D Suspension Conditions and Use Thereof” (South China University of Technology, priority 2022, published 2025).
For at least one compound, name, drawing or mass did not settle the structure.

Legend:
hepatoblasts = assay: Step-down removal of factors from the HB organoid expansion medium; format: cell-based, human; conditions: factor removed from complete medium
From the text: Based on the related-signaling pathways affecting the regeneration/proliferation/expansion of hepatoblasts in vivo and in vitro, the development of the medium formula for HB organoid expansion was to initially select small molecules or cytokines corresponding to the pathways to mimic the process of hepatic progenitor regeneration, and finally the combination of small molecules with cytokines had been established. Through comprehensive investigation on a large amount of literature, it had been shown that Wnt, TGFβ, cAMP, Activin, EGF and HGF pathways were related to the regeneration of hepatoblasts. […] Afterwards, the step-down method through removing factors one by one from the combination had been used to verify which small molecule/cytokine was essential for the long-term culture of hepatoblasts. […] Finally, flow cytometry had been used to detect the expression levels of cell proliferation marker Ki67. […] Therefore, finally the expansion medium of HB organoid was determined as the fifth medium in Example 1: IMDM medium supplemented with 10 % w/w FBS, 1% w/w ITS, 1% w/w NEAA, 1% w/w GlutaMAX, 10 mM Nicotinamide, 5 μM CHIR99021, 10 µM SB431542, 10 μM FSK, 20 ng/mL FGF-4, 20 ng/mL BMP4, 20 ng/mL EGF and 5% Matrigel.

[1] = system: phase I metabolizing enzymes; conditions: CYP3A4, CYP2C9, CYP1A1, CYP1B1 in hepatocyte organoids after induction, qPCR

| SMILES | efficiency of cloning formation after removing the factor (hepatoblasts) | morphological changes of cell spheroids after removing the factor (hepatoblasts) | expression levels of phase I metabolizing enzymes [1] |
| --- | --- | --- | --- |
| C=C[C@@]1(C)CC(=O)[C@]2(O)[C@@]3(C)[C@@H](O)CCC(C)(C)[C@@H]3[C@H](O)[C@H](OC(C)=O)[C@@]2(C)O1 [FSK, Forskolin] | significantly reduced | unable to form hollow organoid-like structures |  |
| COc1ccc2[nH]c([S+]([O-])Cc3ncc(C)c(OC)c3C)nc2c1 (stereo not drawn) [omeprazole] |  |  | significantly increased |
